# According to PubChem BioAssay (EPA / NIEHS):
# Chains of the proteins cited; added tags and fusions are not shown. Lines headed by an entry give the natural chain unless they say otherwise; changes in a name come on top.
# UniProt P15204: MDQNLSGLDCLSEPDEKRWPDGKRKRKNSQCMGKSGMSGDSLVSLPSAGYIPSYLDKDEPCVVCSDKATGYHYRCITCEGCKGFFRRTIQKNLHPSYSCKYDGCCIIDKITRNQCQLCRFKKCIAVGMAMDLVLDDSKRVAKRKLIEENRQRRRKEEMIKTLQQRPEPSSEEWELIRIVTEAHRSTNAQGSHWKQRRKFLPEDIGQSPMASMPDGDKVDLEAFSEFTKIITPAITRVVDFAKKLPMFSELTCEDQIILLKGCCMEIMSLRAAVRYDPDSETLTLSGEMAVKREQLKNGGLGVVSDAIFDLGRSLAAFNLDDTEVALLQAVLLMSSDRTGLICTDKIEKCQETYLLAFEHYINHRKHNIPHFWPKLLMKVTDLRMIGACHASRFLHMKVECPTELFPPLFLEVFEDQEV
# UniProt P10827: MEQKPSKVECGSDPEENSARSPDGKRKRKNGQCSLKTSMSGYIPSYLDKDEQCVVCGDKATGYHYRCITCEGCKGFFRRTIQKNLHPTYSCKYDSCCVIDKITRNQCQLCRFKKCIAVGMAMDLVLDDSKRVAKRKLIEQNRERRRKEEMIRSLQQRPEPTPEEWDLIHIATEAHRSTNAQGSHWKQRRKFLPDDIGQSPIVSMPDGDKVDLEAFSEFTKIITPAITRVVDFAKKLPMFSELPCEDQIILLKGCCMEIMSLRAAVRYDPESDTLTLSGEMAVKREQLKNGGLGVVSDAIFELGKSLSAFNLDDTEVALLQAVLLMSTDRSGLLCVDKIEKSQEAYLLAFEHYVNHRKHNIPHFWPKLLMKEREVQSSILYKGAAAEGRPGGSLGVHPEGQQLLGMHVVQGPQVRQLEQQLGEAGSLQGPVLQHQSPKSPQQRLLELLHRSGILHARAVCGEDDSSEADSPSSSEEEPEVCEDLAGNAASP
# UniProt Q98867: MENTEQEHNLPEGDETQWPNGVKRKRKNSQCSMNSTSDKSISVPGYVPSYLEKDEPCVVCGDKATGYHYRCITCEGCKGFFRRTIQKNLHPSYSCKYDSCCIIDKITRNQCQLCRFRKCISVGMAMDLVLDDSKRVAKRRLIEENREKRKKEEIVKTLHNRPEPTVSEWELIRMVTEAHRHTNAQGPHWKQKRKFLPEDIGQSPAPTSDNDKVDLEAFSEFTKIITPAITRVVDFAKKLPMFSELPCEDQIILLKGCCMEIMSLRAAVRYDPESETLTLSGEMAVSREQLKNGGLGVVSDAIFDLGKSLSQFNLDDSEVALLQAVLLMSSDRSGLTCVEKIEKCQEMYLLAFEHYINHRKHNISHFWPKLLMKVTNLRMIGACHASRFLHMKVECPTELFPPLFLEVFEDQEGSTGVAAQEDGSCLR
# UniProt P11511: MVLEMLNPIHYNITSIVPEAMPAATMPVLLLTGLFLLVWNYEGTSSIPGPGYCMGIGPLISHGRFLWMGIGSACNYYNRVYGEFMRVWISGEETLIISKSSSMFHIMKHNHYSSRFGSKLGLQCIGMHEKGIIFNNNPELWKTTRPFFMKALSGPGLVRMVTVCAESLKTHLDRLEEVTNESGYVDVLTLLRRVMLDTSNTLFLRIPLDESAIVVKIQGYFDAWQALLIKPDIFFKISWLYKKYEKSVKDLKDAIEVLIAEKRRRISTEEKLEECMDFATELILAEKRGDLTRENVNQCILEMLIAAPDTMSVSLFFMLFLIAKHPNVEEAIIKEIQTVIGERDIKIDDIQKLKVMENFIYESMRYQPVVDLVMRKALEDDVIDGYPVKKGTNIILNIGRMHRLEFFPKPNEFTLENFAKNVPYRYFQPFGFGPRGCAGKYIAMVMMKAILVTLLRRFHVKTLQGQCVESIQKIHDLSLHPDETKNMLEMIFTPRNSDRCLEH
# UniProt P49841: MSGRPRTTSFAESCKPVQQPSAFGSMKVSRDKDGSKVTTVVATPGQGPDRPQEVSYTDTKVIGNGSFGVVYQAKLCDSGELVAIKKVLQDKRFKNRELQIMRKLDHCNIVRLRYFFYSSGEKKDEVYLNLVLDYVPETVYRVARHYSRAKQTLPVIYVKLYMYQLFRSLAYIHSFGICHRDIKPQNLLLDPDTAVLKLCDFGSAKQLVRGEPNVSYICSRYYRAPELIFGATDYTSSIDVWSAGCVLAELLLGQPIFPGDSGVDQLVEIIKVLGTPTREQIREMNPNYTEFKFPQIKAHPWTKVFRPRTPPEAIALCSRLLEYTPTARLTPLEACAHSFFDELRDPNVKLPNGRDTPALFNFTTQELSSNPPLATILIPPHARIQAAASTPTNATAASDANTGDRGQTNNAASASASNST
# UniProt P56817: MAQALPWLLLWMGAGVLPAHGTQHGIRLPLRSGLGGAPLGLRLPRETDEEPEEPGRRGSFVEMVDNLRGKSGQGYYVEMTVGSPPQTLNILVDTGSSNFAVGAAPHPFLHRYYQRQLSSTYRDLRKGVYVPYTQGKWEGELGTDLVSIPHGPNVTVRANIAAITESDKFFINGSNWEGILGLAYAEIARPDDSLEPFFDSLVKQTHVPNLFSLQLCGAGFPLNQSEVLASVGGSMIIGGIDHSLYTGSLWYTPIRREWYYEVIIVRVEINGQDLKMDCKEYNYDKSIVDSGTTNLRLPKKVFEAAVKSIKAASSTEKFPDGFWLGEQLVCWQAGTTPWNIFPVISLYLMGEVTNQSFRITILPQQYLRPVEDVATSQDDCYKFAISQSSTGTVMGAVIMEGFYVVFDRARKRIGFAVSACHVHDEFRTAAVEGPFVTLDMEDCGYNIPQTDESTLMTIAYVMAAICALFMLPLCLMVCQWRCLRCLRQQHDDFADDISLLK
# The shares of active, inactive and inconclusive entries below differ from those in the screen. For some of these results: A potency beside an inconclusive call is a rough fit, not a confirmed value. Active and inactive are the calls of the source. The calls were made as follows: active = hit-call score of the fitted dose curve at least 0.9, where 1 is the maximum; inconclusive = response in the unintended direction; inactive = score below 0.9.
# How the values were obtained:
# [1] = tested on: zebrafish Androgen Receptor (AR), gene 100005148; test: ATG_zfAR_XSP1: Attagene TRANS-FACTORIAL Multi-Species (XSP1) HepG2 Assay for zebrafish Androgen Receptor (AR) (AID 2283771)
# Method in brief: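 Gain-of-signal versus DMSO was measured as reporter transcripts quantified by RT-PCR, fluorescent labelling and capillary electrophoresis after 24 h chemical exposure. The cells were HepG2 expressing a chimeric zebrafish AR-GAL4, co-stimulated with 3 nM 6-alpha-fluorotestosterone.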
# [2] = tested on: turtle Androgen Receptor (AR), gene 101947425; test: ATG_trAR_XSP1: Attagene TRANS-FACTORIAL Multi-Species (XSP1) HepG2 Assay for turtle Androgen Receptor (AR) (AID 2283786)
# Method in brief: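 Partial androgen stimulation is provided by 3 nM 6-alpha-fluorotestosterone in a multi-species trans-factorial panel expressing a turtle AR–GAL4 fusion in HepG2. After 24 h, reporter mRNA is measured by RT-PCR and capillary electrophoresis and fitted upward against DMSO.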
# [3] = ATG_M_19_XSP1: Attagene TRANS-FACTORIAL Multi-Species (XSP1) HepG2 Assay for M19 Transcription Factor (Internal Marker) (AID 2283798)
# Method in brief: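 Readout is reporter mRNA induction quantified via RT-PCR, 6-FAM labeling, HpaI digestion and capillary electrophoresis, fitted in the positive direction versus DMSO baseline. Transfected HepG2 cells exposed 24 h, medium including 3 nM 6-alpha-fluorotestosterone.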
# [4] = ATG_M_32_XSP1: Attagene TRANS-FACTORIAL Multi-Species (XSP1) HepG2 Assay for M32 Transcription Factor (Internal Marker) (AID 2283799)
# Method in brief: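 Reporter transcripts from the M32 internal-control unit measured by RT-PCR, FAM labelling, HpaI digestion and capillary electrophoresis after 24 h compound exposure of transfected HepG2, 3 nM 6-alpha-fluorotestosterone included; DMSO baseline, positive-direction fit.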
# [5] = target: frog Thyroid hormone Receptor alpha (TRa), thra-a (gene 397942) (UniProt P15204); test: ATG_frTRa_XSP1: Attagene TRANS-FACTORIAL Multi-Species (XSP1) HepG2 Assay for frog Thyroid hormone Receptor alpha (TRa) (AID 2283804)
# Method in brief: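 Reporter transcript induction, measured by RT-PCR with 6-FAM labelling and capillary electrophoresis, 24 hr after dosing transiently transfected HepG2 cells expressing a frog TRa-GAL4 fusion; medium contained 3 nM 6-alpha-fluorotestosterone; increase over DMSO scored.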
# [6] = target: human Thyroid hormone Receptor alpha (TRa), THRA (gene 7067) (UniProt P10827); test: ATG_hTRa_XSP1: Attagene TRANS-FACTORIAL Multi-Species (XSP1) HepG2 Assay for human Thyroid hormone Receptor alpha (TRa) (AID 2283805)
# Method in brief: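 Reporter transcripts from the human TRa-Gal4 TRANS unit quantified by RT-PCR, fluorescent labeling and capillary electrophoresis after 24 hours of chemical exposure in transfected HepG2 cells; medium contains 3 nM 6-alpha-fluorotestosterone. Positive direction fit against DMSO.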
# [7] = target: zebrafish Thyroid Hormone Receptor alpha (TRa), thraa (gene 30670) (UniProt Q98867); test: ATG_zfTRa_XSP1: Attagene TRANS-FACTORIAL Multi-Species (XSP1) HepG2 Assay for zebrafish Thyroid Hormone Receptor alpha (TRa) (AID 2283807)
# Method in brief: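 Reporter transcripts driven by a chimeric zebrafish TRa–Gal4 protein were measured by RT-PCR with fluorescent labelling and capillary electrophoresis. These came from transiently transfected HepG2 cells after 24 h chemical exposure, with 3 nM 6-alpha-fluorotestosterone added; baseline was DMSO.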
# [8] = target: human Thyroid hormone Receptor alpha (TRa), THRA (gene 7067) (UniProt P10827); test: ATG_hTRa_XSP2: Attagene TRANS-FACTORIAL Multi-Species (XSP2) HepG2 Assay for human Thyroid hormone Receptor alpha (TRa) (AID 2283838)
# Method in brief: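 Reporter transcripts were read by RT-PCR with fluorescent primer extension, HpaI digestion and capillary electrophoresis. These came from HepG2 cells carrying multiplexed TRa-Gal4 TRANS constructs, harvested 24 hours after dosing. The medium also held 6-alpha-fluorotestosterone (3 nM) and norgestrel (1.5 nM), and increases were fitted against DMSO.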
# [9] = CCTE_Simmons_CellTiterGLO_HEK293T: Viability Assessment in CCTE's Assays for Thyroperoxidase (TPO) Inhibition, Simmons Lab (AID 2283665);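 also: cells exposed to compound for 24 h before readout; actives reduce ATP signal below DMSO vehicle meaning cytotoxicity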
# Method in brief: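 Cells were seeded overnight, then exposed to an eight-point series up to 87.5 uM final for 24 hours. CellTiter-Glo reagent was added and luminescence read after 20 min, giving ATP-based viability versus DMSO.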
# [10] = target: human CYP19A1, CYP19A1 (gene 1588) (UniProt P11511); test: NVS_ADME_hCYP19A1: NovaScreen (NVS) CYP450-related Enzyme Activity (ADME) Assay for human CYP19A1 (AID 2283098);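 also: potency for inhibitors seen as loss of fluorescent enzyme signal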
# Method in brief: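 Primary testing was in duplicate at a single 10 uM concentration, with actives followed up in concentration-response series. Fluorescence read-out of recombinant enzyme activity at 0.5 h, cell-free. Acetonitrile was the negative-control baseline.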
# [11] = target: Voltage-dependent N-type calcium channel subunit alpha-1B (Rattus norvegicus) (UniProt Q02294); test: NVS_IC_rCaChN: NovaScreen (NVS) Ion Channel Assay for rat Calcium Channel, Type N (CaChN) (AID 2283317)
# [12] = tested on: Sodium/Iodide Symporter (NIS), SLC5A5 (gene 6528); test: CPHEA_Stoker_NIS_Inhibition_RAIU: CPHEA's Radioactive Iodide Uptake (RAIU) Assay for Sodium/Iodide Symporter (NIS) Inhibition, Stoker and Laws Labs (AID 2283841)
# Method in brief: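 Test chemicals, six concentrations from 0.001 to 100uM in 0.5% DMSO, were co-incubated with carrier-free 125I (final 329pM) on hNIS-HEK293T-EPA monolayers in pH 7.4 HEPES-buffered HBSS. Plates stood 2 hours at room temperature, then were washed cold and counted.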
# [13] = target: human Adenosine A2a Receptor (AdoRA2a), ADORA2A (gene 135) (UniProt P29274); test: NVS_GPCR_hAdoRA2a: NovaScreen (NVS) G Protein-Coupled Receptor Assay for human Adenosine A2a Receptor (AdoRA2a) (AID 2283256)
# Method in brief: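 Compounds screened in duplicate at 25 uM, with actives followed up in concentration series, for displacement of a radioligand from HEK293-derived receptor protein. Bound counts read by filter scintillation at 1.5 hours, DMSO as baseline.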
# [14] = STM_H9_NormalizedViability: Cytotoxicity Assessment at 120 hours in the Stemina devTOX quickPredict H9 human embryonic stem cell (hESC)-based Assay (AID 2283784)
# Method in brief: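 Viability of the cell layer was taken from live-cell protease cleavage of a fluorogenic substrate after compound exposure of undifferentiated H9 stem cells, with replenishment each 24h. Fluorescence was normalized to vehicle (0.1% DMSO).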
# [15] = target: Glycogen synthase kinase-3 beta (Homo sapiens) (UniProt P49841); test: NVS_ENZ_hGSK3b: NovaScreen (NVS) Enzymatic Assay for human Glycogen Synthase Kinase-3 beta (GSK3b) (AID 2283165)
# Method in brief: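 Recombinant enzyme with specific fluorescent substrate, 1 h, product separated by electrophoretic mobility shift. Primary duplicate screen at 25 uM; actives (e.g. 30% inhibition) followed in singleton concentration-response to 50 uM. Signal loss fitted versus DMSO.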
# [16] = tested on: zebrafish Peroxisome Proliferator-activated Receptor gamma (PPARg), gene 557037; test: ATG_zfPPARg_XSP2: Attagene TRANS-FACTORIAL Multi-Species (XSP2) HepG2 Assay for zebrafish Peroxisome Proliferator-activated Receptor gamma (PPARg) (AID 2283833);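 also: reporter mRNA from a zebrafish PPARg GAL4 chimera measured by RT-PCR and capillary electrophoresis; actives increase reporter signal over DMSO so AC50 reflects activation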
# Method in brief: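 HepG2, transient MRTU transfection, 24 h compound; zfPPARg-GAL4 reporter mRNA by RT-PCR + capillary electrophoresis; gain-of-signal vs DMSO.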
# [17] = target: human Beta-secretase (BACE), BACE1 (gene 23621) (UniProt P56817); test: NVS_ENZ_hBACE: NovaScreen (NVS) Enzymatic Assay for human Beta-secretase (BACE) (AID 2283140);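 also: hits are inhibitors that reduce fluorescent substrate signal versus DMSO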
# Method in brief: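 Fluorescence intensity read-out of protease activity defines this endpoint; signal loss relative to DMSO baseline marks inhibition. Recombinant enzyme from SF9 cells, cell-free format, 1 h exposure. Single-concentration duplicate screen (25 uM) precedes concentration-series follow-up.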
structure (smiles),measurement,setting,value
CN(C)C(=N)N=C(N)N,AC50,[1],inconclusive: 0.0657 µM
same,AC50,[2],inconclusive: 0.00914 µM
same,outcome,[3],inactive
same,outcome,[4],inactive
same,AC50,[5],inconclusive: 0.599 µM
same,AC50,[6],inconclusive: 100 µM
same,AC50,[7],inconclusive: 100 µM
same,AC50,[8],inconclusive: 100 µM
N#Cc1ccc(C(c2ccc(C#N)cc2)n2cncn2)cc1,AC50,[9],inconclusive: 7.59 µM
CCCCCCCCCCCCCCCS(=O)(=O)Oc1ccccc1,AC50,[10],inconclusive: 5 µM
same,outcome,[11],inactive
CC(C)(O)c1coc(S(=O)(=O)NC(=O)Nc2c3c(cc4c2CCC4)CCC3)c1,AC50,[11],inconclusive: 25 µM
same,AC50,[9],active: 22.4 µM
same,AC50,[12],inconclusive: 0.00088 µM
Nc1ccc2c(c1)C(=O)c1ccccc1C2=O,AC50,[13],inconclusive: 42.7 µM
CC(=O)S[C@H](C(=O)N[C@H]1Cc2ccccc2[C@H]2CCC[C@@H](C(=O)O)N2C1=O)C(C)C,AC50,[14],inconclusive: 10 µM
CN1CCCC1=O,AC50,[15],inconclusive: 25 µM
CCCCC(CC)COC(=O)c1ccc(O)cc1 (stereo unspecified),AC50,[1],inconclusive: 11.1 µM
same,outcome,[2],inactive
same,AC50,[3],inconclusive: 19.8 µM
same,AC50,[4],inconclusive: 17.9 µM
same,AC50,[5],inconclusive: 0.19 µM
same,outcome,[6],inactive
same,outcome,[7],inactive
same,AC50,[16],active: 60 µM
same,AC50,[8],inconclusive: 61.4 µM
CC(O)CC(C)(C)O (stereo unspecified),AC50,[17],inconclusive: 0.0815 µM
CCCCCCC(C=O)=Cc1ccccc1,AC50,[12],inconclusive: 0.000101 µM
CCCCCCCCCC,AC50,[10],inconclusive: 15.2 µM
same,outcome,[14],inactive
COCCOCCOCCOC,outcome,[14],inactive

# 2 records picked at random from the list so far, as already listed:
structure (smiles),measurement,setting,value
CCCCC(CC)COC(=O)c1ccc(O)cc1 (stereo unspecified),AC50,[3],inconclusive: 19.8 µM
COCCOCCOCCOC,outcome,[14],inactive
